Results reported in the supplement of paper PMC10735217.
Structures can show the parent of a compound that is named as a salt. Some of the results follow. This data set is noisy: repeats of one test often differ as much as different tests do.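 The human kidney-derived cells carry a stably integrated construct of eight TEAD-binding elements driving luciferase, read by luminescence in a drug-repurposing library screen. A compound counts as a hit when its signal is more than five robust Z scores above the plate mean.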

System: HEK293A TEAD-LUC reporter
Assay: TEAD-luciferase reporter activity (YAP activation), robust Z score vs plate; higher = stronger YAP/TEAD activation
Details: 24 h

| Structure (SMILES) | TEAD-luciferase reporter activity (compound concentration: 200 nM) | TEAD-luciferase reporter activity (compound concentration: 2 uM) | TEAD-luciferase reporter activity (compound concentration: 10 uM) |
| --- | --- | --- | --- |
| CCC[C@H](N)C(=O)NC1CCN(c2c(F)cc3c(=O)c(C(=O)O)cn4c3c2Oc2ccccc2-4)C1 (stereo not given in full) | inactive: -0.101 | inactive: 1.97 | inactive: -1.28 |
| CN(CCc1ccccc1)C(=O)Cc1cc(C(=O)O)cc2c(OCc3ccccc3)cccc12 | inactive: -0.624 | inactive: -0.198 | inactive: -0.801 |
| O=C1NC(=O)C(Cc2ccc3c(c2)CCC(Cc2ccccc2)O3)S1 (stereo not given) [Englitazone] | inactive: -0.271 | inactive: -0.664 | inactive: -0.522 |
| CC1OC1P(=O)([O-])[O-] (stereo not given) [Phosphomycin disodium] | inactive: 0.45 |  | inactive: 1.97 |
| CC1OC1P(=O)([O-])[O-] (stereo not given) [fosfomycin disodium] |  | inactive: -0.415 |  |
| O=C(Nc1ccc(F)cc1)C1CN(C2CCCCC2)C(=O)N1 (stereo not given) | inactive: 0.113 |  | inactive: 0.142 |
| COc1ccc(C(=O)N2CCc3c([nH]c4ccccc34)C2c2ccc(Cl)cc2)cc1 (stereo not given) | inactive: -1.03 | inactive: -0.677 | inactive: -0.466 |
| COC(=O)N1CCC(CN2CCC(CNC(=O)c3cccc4[nH]c(C(C)C)nc34)CC2)CC1 | inactive: 1.36 | inactive: 0.549 | inactive: 2.08 |
| O=C(NOCCO)c1ccc2cncn2c1Nc1ccc(I)cc1F | inactive: -0.135 | inactive: -0.584 | inactive: -2.28 |
| CC(C)CN(C[C@H](O)[C@H](Cc1ccccc1)NC(=O)[C@@H](NC(=O)CNCc1cccc(F)c1)C(C)(C)C)S(=O)(=O)c1cccc(N)c1 | inactive: 0.744 | inactive: 1.26 | inactive: 0.979 |
| O=C(O[C@H]1CN2CCC1CC2)N1CCc2ccccc2[C@@H]1c1ccccc1 [solifenacin succinate, ODT] | inactive: -0.681 | inactive: -0.492 | inactive: 3.07 |
| COCCN1CCC(N(Cc2ccc(-c3ccc(C(F)(F)F)cc3)cc2)C(=O)Cn2c(CCc3cccc(F)c3F)cc(=O)c3cccnc32)CC1 | inactive: -0.954 | inactive: -2.05 | inactive: -0.535 |
| O=C(C1CCCC1)N1Cc2ccccc2CC2(CCCCN2CC2CCNCC2)C1 (stereo not given) | inactive: 2.26 |  | inactive: 2.89 |
| C=CC[N+]1([C@H]2C[C@H]3[C@@H]4CC[C@H]5C[C@H](OC(C)=O)[C@@H](N6CCCCC6)C[C@]5(C)[C@H]4CC[C@]3(C)[C@H]2OC(=O)CC)CCCCC1 [rapacuronium bromide] | inactive: 0.171 | inactive: -1.74 | inactive: 2.17 |
| O=C(O)COc1ccc(C(=O)c2cccs2)c(Cl)c1Cl [tienilic acid] | inactive: -0.48 | inactive: -1.64 | inactive: 2.25 |
| N#CC1CCN(CCc2ccc3c(c2)CCO3)CC1 | inactive: 0.429 | inactive: -1.79 | inactive: 2.63 |
| CN1CCC(=C2c3ccccc3Oc3ncccc32)CC1 | inactive: -0.387 | inactive: 1.86 | inactive: -1.07 |
| O=C(C1CC[C@H](CC1)CNC(=N)N)Oc1ccc(cc1)C(C)(C)C (stereo not given) | inactive: -0.574 | inactive: -0.65 | inactive: 3.44 |
| O=C1c2ccc(O)cc2OCC1c1ccc(O)cc1 (stereo not given) | inactive: 0.0143 | inactive: -0.443 | inactive: -0.688 |
| COc1ccc2c(c1)c(CC(=O)OCC(C(=O)O)c1ccccc1)c(C)n2C(=O)c1ccc(Cl)cc1 (stereo not given) [tropine indometacinate, Spofa] | inactive: -0.64 |  | inactive: 1.39 |

| Structure (SMILES) | TEAD-luciferase reporter activity (compound concentration: 200 nM) | TEAD-luciferase reporter activity (compound concentration: 2 uM) | TEAD-luciferase reporter activity (compound concentration: 10 uM) |
| --- | --- | --- | --- |
| COc1ccc2c(c1)c(CC(=O)OCC(C(=O)O)c1ccccc1)c(C)n2C(=O)c1ccc(Cl)cc1 (stereo not given) [tropine indometacinate] |  | inactive: -0.855 |  |
| O=C1Nc2ccc(Cl)cc2[C@](/C=C/C2CC2)(C(F)(F)F)N1 | inactive: 0.0755 | inactive: -0.33 | inactive: 1.41 |
| CC[C@@H](CC[C@@H](C)[C@H]1CCC2[C@@H]3CC=C4C[C@H](O)CC[C@]4(C)C3CC[C@@]21C)C(C)C (stereo not given in full) | inactive: -0.815 | inactive: 0.17 | inactive: 0.461 |
| CCCCCCCCCCCCCCCCCC(=O)NCC(COP(=O)(O)OCC[N+](C)(C)C)OCC (stereo not given) | inactive: -0.931 | inactive: -1.79 | inactive: -2.34 |
| CC1CCCN1CCCOc1ccc(-n2cc(C(=O)N3CCOCC3)cn2)cc1 (stereo not given) | inactive: -0.691 | inactive: -1.14 | inactive: -1.23 |
| CCCN1CCCCC12Cc1ccccc1CN(C(=O)CCCC(=O)O)C2 (stereo not given) | inactive: 1.23 |  | inactive: 0.0202 |
| CCCCc1ccc2[nH]c(NC(=O)OC)nc2c1 | inactive: 2.81 | active: 11.7 | active: 16.8 |
| CCOC(=O)c1c(Cn2cncn2)nc2cc(OC)c(OC)cc2c1-c1ccc(OC)c(OC)c1 | inactive: -0.49 | inactive: -1.55 | inactive: -0.937 |
| C[C@H]1[C@H](C)CC[C@]2(CO)CC[C@]3(C)C(=CC[C@@H]4[C@@]5(C)CC[C@H](O)C(C)(C)[C@@H]5CC[C@]43C)[C@H]12 | inactive: 1.53 | inactive: -1.92 | inactive: 1.4 |
| CC(C)N1CCN=C1CN1CCCCSc2ccc(Cl)cc21 [Dazolicine] | inactive: -0.48 | inactive: -2.03 | inactive: 1.81 |
| Cc1ccccc1N(C)C1CN(Cc2ccccc2)C1 | active: 9.68 |  | inactive: 3.91 |
| N=C(N)NCCC(=O)O | inactive: -1.26 |  | inactive: 1.29 |
| COc1ccc(CC(C)(C)NC[C@H](O)c2cc(O)cc3c2OCC(=O)N3)cc1 [Olodaterol HCl] | inactive: -0.648 | inactive: -0.189 | inactive: 2.48 |
| CCOC(=O)C1CCN(C(=O)CCS(=O)(=O)c2ccc3ccccc3c2)CC1 | inactive: -2.61 | inactive: -1.74 | inactive: 2.63 |
| CO[C@H](CN(CC(C)C)S(=O)(=O)c1ccc2occc2c1)[C@H](Cc1ccccc1)NC(=O)OC(C)(C)C | inactive: -1.08 | inactive: -0.304 | inactive: 2.97 |
| COc1cc2c(c3c1c(=O)c1ccccc1n3C)C=CC(C)(C)O2 [acronycine] | inactive: -0.00668 | inactive: 1.79 | inactive: 0.202 |
| CC(C)(C)[C@H](NC(=O)[C@@H](NC(=O)c1cnccn1)C1CCCCC1)C(=O)O | inactive: -0.275 | inactive: -0.747 | inactive: 0.566 |
| Cc1ccc([N+](=O)[O-])c(NC(C(N)=O)c2ccccc2Cl)c1 (stereo not given) |  | inactive: 2.76 |  |
| O=C(O)CC/C=C\CC[C@@H]1[C@@H](N2CCCCC2)[C@@H](O)C[C@@H]1OCc1ccc(-c2ccccc2)cc1 [Vapiprost hydrochloride] | inactive: -1.03 | inactive: -1.26 | inactive: 1.36 |
| Cn1cc(C2=C(c3c4n(c5ccccc35)CCC(CN)C4)C(=O)NC2=O)c2ccccc21 (stereo not given) | inactive: 1.97 | inactive: -0.944 | inactive: -2.17 |

| Structure (SMILES) | TEAD-luciferase reporter activity (compound concentration: 200 nM) | TEAD-luciferase reporter activity (compound concentration: 2 uM) | TEAD-luciferase reporter activity (compound concentration: 10 uM) |
| --- | --- | --- | --- |
| CCOC(=O)c1ccc(NC(=O)C2=C(C)OCCS2)cc1 | inactive: -1.62 | inactive: 0.382 | inactive: 0.433 |
| CC1=C(C(=O)O)N2C(=O)[C@@H](NC(=O)C(N)c3ccc4c(c3)OCO4)[C@H]2SC1 (stereo not given in full) | inactive: 0.199 | inactive: -0.624 | inactive: 0.99 |
| CCCc1ccc(OCC(C)O)c2c(=O)cc(C(=O)O)oc12 (stereo not given) | inactive: -1.87 | inactive: -0.844 | inactive: 0.189 |
| Cc1ccc(C(=O)N(CCCN)C(=C2Nc3cc(Cl)ccc3C(=O)N2Cc2ccccc2)C(C)C)cc1 [ispinesib mesylate] | inactive: -0.242 | inactive: -2.86 | inactive: 3.71 |
| C[C@]1(c2nc3c(C(N)=O)cccc3[nH]2)CCCN1 [ABT-888 (Veliparib)] | inactive: -0.733 |  | inactive: -0.385 |
| C[C@]1(c2nc3c(C(N)=O)cccc3[nH]2)CCCN1 |  | inactive: -0.549 |  |
| CN1c2c(oc(=O)n(-c3ccccn3)c2=O)-c2ccccc2S1(=O)=O [droxicam] | inactive: 2.27 | inactive: -1.25 | inactive: 3.22 |
| Nc1nnc(-c2cccc(Cl)c2Cl)c(N)n1 [lamotrigine orally disintegrating tablet] |  | inactive: -1.6 |  |
| Nc1nnc(-c2cccc(Cl)c2Cl)c(N)n1 [lamotrigine] | inactive: 1.32 |  | inactive: -0.854 |
| COC(=O)CCc1ccc(OCC(O)CNC(C)C)cc1 (stereo not given) | inactive: 0.315 |  | inactive: -0.487 |
| COC(=O)CCc1ccc(OCC(O)CNC(C)C)cc1 (stereo not given) [esmolol hydrochloride] |  | inactive: -0.369 |  |
| COc1cc(OC)cc(C(=O)N2CCN(CCc3ccc(Cl)cc3)CC2)c1 | inactive: 0.804 | inactive: -0.0338 | inactive: 0.361 |
| O=C1CCC(N2C(=O)C3CCCC3C2=O)C(=O)N1 (stereo not given) | inactive: 1.4 | inactive: -0.241 | inactive: -1.26 |
| O=C1c2ccccc2C(=O)c2c1cn1c2Cc2ccccc2C1 [Mitoquidone] | inactive: -0.839 | inactive: -0.997 | inactive: 1.4 |
| CCN(CC)CCOc1ccc(/C(=C(/Cl)c2ccccc2)c2ccccc2)cc1 [enclomiphene citrate] | inactive: -1.17 | inactive: -1.12 | inactive: 0.957 |
| O=C1CN(S(=O)(=O)c2oc3ccccc3c2Br)C(=O)N1 | inactive: -0.807 | inactive: 0.982 | inactive: 0.976 |
| Cc1ccc(-c2cc(C(F)(F)F)nn2-c2ccc(S(N)(=O)=O)cc2)cc1 | inactive: -1.12 |  | inactive: 2.59 |
| Cc1ccc(-c2cc(C(F)(F)F)nn2-c2ccc(S(N)(=O)=O)cc2)cc1 [celecoxib] |  | inactive: -1.14 |  |
| Cc1ccc(-c2cc(C(F)(F)F)nn2-c2ccc(S(N)(=O)=O)cc2)cc1 [Celecoxib] |  | inactive: 0.674 |  |

Fetched one by one from the entries so far, 5 records:

| Structure (SMILES) | TEAD-luciferase reporter activity (compound concentration: 200 nM) | TEAD-luciferase reporter activity (compound concentration: 2 uM) | TEAD-luciferase reporter activity (compound concentration: 10 uM) |
| --- | --- | --- | --- |
| CCCc1ccc(OCC(C)O)c2c(=O)cc(C(=O)O)oc12 (stereo not given) | inactive: -1.87 | inactive: -0.844 | inactive: 0.189 |
| CCN(CC)CCOc1ccc(/C(=C(/Cl)c2ccccc2)c2ccccc2)cc1 [enclomiphene citrate] | inactive: -1.17 | inactive: -1.12 | inactive: 0.957 |
| Cc1ccc(-c2cc(C(F)(F)F)nn2-c2ccc(S(N)(=O)=O)cc2)cc1 [celecoxib] |  | inactive: -1.14 |  |
| Cc1ccc(C(=O)N(CCCN)C(=C2Nc3cc(Cl)ccc3C(=O)N2Cc2ccccc2)C(C)C)cc1 [ispinesib mesylate] | inactive: -0.242 | inactive: -2.86 | inactive: 3.71 |
| O=C1CCC(N2C(=O)C3CCCC3C2=O)C(=O)N1 (stereo not given) | inactive: 1.4 | inactive: -0.241 | inactive: -1.26 |
